We go through one molecule from publication PMC4220463, “Direct interaction of Plk4 with STIL ensures formation of a single procentriole per parental centriole” (Nature Communications, 2014).

The assay deals with T1, Plk4-FLAG full-length wild-type (UniProt O00444).
T1 sequence: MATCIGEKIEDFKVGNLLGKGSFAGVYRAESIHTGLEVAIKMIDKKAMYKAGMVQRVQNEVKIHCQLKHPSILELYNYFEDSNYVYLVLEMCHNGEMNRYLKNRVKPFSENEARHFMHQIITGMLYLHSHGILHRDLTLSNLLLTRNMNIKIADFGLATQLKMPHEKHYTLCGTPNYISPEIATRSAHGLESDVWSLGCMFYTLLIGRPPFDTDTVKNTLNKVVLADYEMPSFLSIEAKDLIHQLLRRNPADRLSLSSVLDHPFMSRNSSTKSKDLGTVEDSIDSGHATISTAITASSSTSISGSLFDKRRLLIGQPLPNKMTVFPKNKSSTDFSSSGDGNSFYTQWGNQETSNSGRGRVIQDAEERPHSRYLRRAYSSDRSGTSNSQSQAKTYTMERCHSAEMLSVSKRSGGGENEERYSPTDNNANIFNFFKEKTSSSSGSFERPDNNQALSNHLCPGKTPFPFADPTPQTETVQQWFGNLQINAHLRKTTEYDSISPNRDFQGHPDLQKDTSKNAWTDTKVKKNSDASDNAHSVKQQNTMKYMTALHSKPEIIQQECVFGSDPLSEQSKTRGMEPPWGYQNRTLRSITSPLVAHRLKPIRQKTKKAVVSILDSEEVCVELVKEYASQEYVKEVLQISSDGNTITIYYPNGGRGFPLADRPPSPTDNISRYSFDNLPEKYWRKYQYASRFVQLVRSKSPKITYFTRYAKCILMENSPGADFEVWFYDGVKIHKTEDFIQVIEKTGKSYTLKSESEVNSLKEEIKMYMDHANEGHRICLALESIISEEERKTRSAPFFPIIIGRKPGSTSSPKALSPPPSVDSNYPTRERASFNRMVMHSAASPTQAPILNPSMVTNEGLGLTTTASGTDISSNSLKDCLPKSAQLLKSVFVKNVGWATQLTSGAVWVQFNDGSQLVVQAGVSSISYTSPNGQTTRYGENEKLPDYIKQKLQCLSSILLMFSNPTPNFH
Description: co-IP; FLAG antibody-conjugated M2 agarose, 2 h at 4 °C, whole-cell lysates of HEK293T cells expressing Plk4-FLAG proteins (alone or with HA-STIL constructs); lysis buffer 20 mM Tris/HCl pH 7.5, 50 mM NaCl, 1% Triton X-100, 5 mM EGTA, 1 mM DTT, 2 mM MgCl2; western blot. Background: In western blotting, separated proteins are transferred to a membrane and probed.

Results are given in words; binding and its absence hold for the method and conditions named. In cells and extracts the contact can be indirect. Where a sequence is shown, tags or fusion partners need not be part of it.

B1: endogenous HsSAS-6 (protein, UniProt Q6UVJ0 1-657)
chain: MSQVLFHQLVPLQVKCKDCEERRVSIRMSIELQSVSNPVHRKDLVIRLTDDTDPFFLYNLVISEEDFQSLKFQQGLLVDFLAFPQKFIDLLQQCTQEHAKEIPRFLLQLVSPAAILDNSPAFLNVVETNPFKHLTHLSLKLLPGNDVEIKKFLAGCLKCSKEEKLSLMQSLDDATKQLDFTRKTLAEKKQELDKLRNEWASHTAALTNKHSQELTNEKEKALQAQVQYQQQHEQQKKDLEILHQQNIHQLQNRLSELEAANKDLTERKYKGDSTIRELKAKLSGVEEELQRTKQEVLSLRRENSTLDVECHEKEKHVNQLQTKVAVLEQEIKDKDQLVLRTKEAFDTIQEQKVVLEENGEKNQVQLGKLEATIKSLSAELLKANEIIKKLQGDLKTLMGKLKLKNTVTIQQEKLLAEKEEKLQKEQKELQDVGQSLRIKEQEVCKLQEQLEATVKKLEESKQLLKNNEKLITWLNKELNENQLVRKQDVLGPSTTPPAHSSSNTIRSGISPNLNVVDGRLTYPTCGIGYPVSSAFAFQNTFPHSISAKNTSHPGSGTKVQFNLQFTKPNASLGDVQSGATISMPCSTDKENGENVGLESKYLKKREDSIPLRGLSQNLFSNSDHQRDGTLGALHTSSKPTALPSASSAYFPGQLPNS
Take B1: the binding entry was “no binding”.
